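Light output of secreted GLuc without a tag in a neuroblastoma line, used as a counterscreen, with an ER calcium-depleting agent present for 4 h.
The value is the fitted concentration giving half-maximal inhibition, and a smaller value means a more potent compound.
Calls follow the NCATS curve classes: well-fitted full or partial curves score 40-100 and are active, weak, poor or single-point curves score 1-39 and are inconclusive, and class 4 is inactive.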

Values are in µM.
All entries here are filed as inconclusive.
Only part of the assay is shown, chiefly results filed as inconclusive.
A potency from a partial, single-point or poor curve is only a rough figure.
Some entries filed as inconclusive have a full curve.
Activity scores are not listed here.

SMILES,Potency (µM),curve
COc1cc(/C=C/C(=O)CC(=O)/C=C/c2ccc(O)c(OC)c2)ccc1O,31.62,"inhibitor, partial curve, poor fit"
CN1CCCN(C(c2ccccc2)c2ccc(Cl)cc2)CC1 (configuration not stated),50.12,"inhibitor, single point"
NCC(O)c1cc(O)c(O)cc1F (configuration not stated),0.3981,"inhibitor, full curve"
CC(C)N=C(N)N=C(N)Nc1ccc(Cl)cc1,50.12,"inhibitor, single point"
C=CCNc1nc(NCC=C)nc(N2CCN(C(c3ccc(F)cc3)c3ccc(F)cc3)CC2)n1,25.12,"inhibitor, full curve, poor fit"
CC(C)(C)[C@]1(O)CCN2C[C@H]3c4ccccc4CCc4cccc(c43)[C@@H]2C1,1.778,"inhibitor, partial curve, poor fit"
COc1ccc(-c2nc3cnc(N4CCN(C)CC4)nc3n(Cc3cccc(OC)c3)c2=O)cc1,0.7079,"inhibitor, full curve, poor fit"
C=CCN1C[C@H](C)N([C@H](c2ccc(C(=O)N(CC)CC)cc2)c2cccc(O)c2)C[C@H]1C,1.585,"inhibitor, full curve"
Oc1ccccc1O,39.81,"inhibitor, partial curve, poor fit"
CN(C)CCC=C1c2ccccc2CCc2ccccc21,0.3162,"inhibitor, full curve"
O=c1c(CCc2ccccc2)nc2cnc(N3CCNCC3)nc2n1CCc1ccccc1,50.12,"inhibitor, single point"
COC(=O)[C@@H](N)Cc1ccc(O)c(O)c1,35.48,"inhibitor, partial curve, poor fit"
COC(=O)[C@H]1[C@H]2C[C@@H]3c4[nH]c5cc(OC)ccc5c4CCN3C[C@H]2C[C@@H](OC(=O)c2cc(OC)c(OC)c(OC)c2)[C@@H]1OC,1.122,"inhibitor, full curve"
CCC(=O)c1ccc2c(c1)N(CCCN(C)C)c1ccccc1S2,56.23,"inhibitor, partial curve, poor fit"
COc1ccccc1N1CCN(CCN2C(=O)c3ccccc3C(C)(C)C2=O)CC1,70.79,"inhibitor, single point"
CC(CN(C)C)CN1c2ccccc2CCc2ccccc21 (configuration not stated),0.2818,"inhibitor, full curve, poor fit"
COc1ccc(-c2ccc3c(N4CCOCC4)nc(N4C[C@@H](C)O[C@@H](C)C4)nc3n2)cc1CO,0.3548,"inhibitor, full curve, poor fit"
Oc1cc2c(cc1O)CN(C(=S)NCCc1ccc(Cl)cc1)CCC2,0.3548,"inhibitor, full curve, poor fit"
COCCn1c(=O)c(-c2ccccc2)nc2cnc(Oc3ccc(OC)cc3)nc21,0.2239,"inhibitor, full curve, poor fit"
CNCCCC1c2ccccc2C=Cc2ccccc21,50.12,"inhibitor, single point"
Cc1cc(O)c2c(c1)C(=O)c1cc(O)cc(O)c1C2=O,39.81,"inhibitor, partial curve, poor fit"
COc1ccc2c(c1)[C@@]13CCCC[C@H]1[C@@H](C2)NCC3,35.48,"inhibitor, partial curve, poor fit"
COc1cccc(Nc2ncc3nc(-c4ccccc4)c(=O)n(C[C@H]4CCCO4)c3n2)c1,7.08,"inhibitor, partial curve"
COC(=O)[C@H]1[C@H]2C[C@@H]3c4[nH]c5cc(OC)ccc5c4CCN3C[C@H]2C[C@@H](OC(=O)/C=C/c2ccc(O)c(OC)c2)[C@@H]1OC,10,"inhibitor, full curve"
c1ccc(-c2cccc(N3CC4(CCNCC4)C3)c2)cc1,44.67,"inhibitor, partial curve"
O=C(/C=C/c1ccc(O)c(O)c1)OCCc1ccccc1,1.585,"inhibitor, full curve, poor fit"
CSc1ccccc1N1CCN(CCCCCC(=O)NC2CCCc3ccccc32)CC1 (configuration not stated),31.62,"inhibitor, partial curve, poor fit"
CN1CCc2cc(O)cc3c2[C@H]1Cc1ccc(O)c(O)c1-3,22.39,"inhibitor, full curve"
CC(CN1c2ccccc2Sc2ccccc21)N(C)C (configuration not stated),11.22,"inhibitor, partial curve, poor fit"
Cc1c(O)cccc1C(=O)N[C@@H](CSc1ccccc1)[C@H](O)CN1C[C@H]2CCCC[C@H]2C[C@H]1C(=O)NC(C)(C)C,39.81,"inhibitor, single point"
O=C(c1cc(C(F)(F)F)cc(C(F)(F)F)c1)N1CCC2(CC1)CN(c1ccccn1)C2,63.1,"inhibitor, single point"
N#CCCn1c(=O)c(-c2cc(F)cc(F)c2)nc2cnc(OCc3ccccc3)nc21,2.512,"inhibitor, full curve"
O=[N+]([O-])c1ccc(O)c2ncccc12,6.31,"inhibitor, full curve"
CC(C)NCC(O)c1ccc(O)c(O)c1 (configuration not stated),25.12,"inhibitor, full curve, poor fit"
O=C(NCc1ccncc1)C(=O)Nc1nc(C23CC4CC(CC(C4)C2)C3)cs1,48.53,"inhibitor, single point"
O=C(Nc1cccc(C(=O)Nc2ccc(S(=O)(=O)O)c3cc(S(=O)(=O)O)cc(S(=O)(=O)O)c23)c1)Nc1cccc(C(=O)Nc2ccc(S(=O)(=O)O)c3cc(S(=O)(=O)O)cc(S(=O)(=O)O)c23)c1,14.13,"inhibitor, partial curve, poor fit"
COc1ccc(Oc2ncc3nc(-c4cc(F)cc(F)c4)c(=O)n(C4CC4)c3n2)cc1,1.585,"inhibitor, full curve, poor fit"
c1cc(N2CCCC3(CCNCC3)C2)ccn1,50.12,"inhibitor, single point"
COc1ccc(/C=C/C(=O)Nc2ccccc2C(=O)O)cc1OC,44.67,"inhibitor, partial curve, poor fit"

For reference, 3 entries once more:

SMILES	Potency (µM)	curve
COc1ccc(-c2nc3cnc(N4CCN(C)CC4)nc3n(Cc3cccc(OC)c3)c2=O)cc1	0.7079	inhibitor, full curve, poor fit
COc1cccc(Nc2ncc3nc(-c4ccccc4)c(=O)n(C[C@H]4CCCO4)c3n2)c1	7.08	inhibitor, partial curve
CC(CN1c2ccccc2Sc2ccccc21)N(C)C (configuration not stated)	11.22	inhibitor, partial curve, poor fit

From PubChem BioAssay record AID1508627 (NCATS, 2021).